The list is a part of this screen's results and no random one: it gathers tests that were run many times, whatever their T/C, doses with no T/C, and many T/C values between a quarter and a half above the control. Other doses and runs of a compound stand elsewhere. T/C: endpoint of the treated group in % of that of the vehicle group. Some doses have a count of surviving animals in place of a T/C: the source holds a T/C of zero for them, seemingly a mark for toxic or unscored doses. Some survivor counts are full or nearly so, which does not show that the dose was tolerated: survival well below the control is almost never listed, so the zero probably covers shortened survival too. Counts of survivors are from the toxicity check (mostly the fifth day) where no day follows; animals may have died later. Schedules are NCI's codes, read here as Q, the interval in days (D) or hours (H), X, the number of doses. Some structures stand for samples that the source files as different forms (salt, stereo form or complex); doses refer to the form tested. Signs of the kind (2×) give the number of equal values in this list. Some entries were tested several times; the values are given in rising order. Some schedules carry Z or #; the key to these is not given. For survival time, this PubChem deposit counts one and a half times the control or more as active, and values a quarter to a half above the control carry no call in these data; other NCI protocols may use other cut-offs. Some T/C values are followed by the survivors on the day toxicity was checked, most often the fifth; without a count, all were alive then.
System: L1210 leukemia ip in BDF1 mice, survival T/C
Assay: NCI In Vivo Anticancer Drug Screen. Data for tumor model L1210 Leukemia (intraperitoneal) in B6D2F1 (BDF1) mice
Settings: T/C endpoint: mean survival time, higher T/C = longer survival
[1] = dose: 50.0 mg/kg/injection, schedule: Q01DX009 (ip), vehicle: saline with Tween-80
[2] = dose: 50.0 mg/kg/injection, schedule: Q01DX009 (ip), vehicle: saline
[3] = dose: 100.0 mg/kg/injection, schedule: Q01DX009 (ip), vehicle: saline
[4] = dose: 100.0 mg/kg/injection, schedule: Q04DX003 (ip), vehicle: saline with Tween-80
[5] = dose: 150.0 mg/kg/injection, schedule: Q04DX003 (ip), vehicle: saline with Tween-80
[6] = dose: 200.0 mg/kg/injection, schedule: Q04DX003 (ip), vehicle: saline with Tween-80
[7] = dose: 400.0 mg/kg/injection, schedule: Q04DX003 (ip), vehicle: saline with Tween-80
[8] = dose: 300.0 mg/kg/injection, schedule: Q01DX001 (ip), vehicle: saline
[9] = dose: 400.0 mg/kg/injection, schedule: Q01DX009 (ip), vehicle: Klucel (hydroxypropylcellulose) (HPC)
[10] = dose: 200.0 mg/kg/injection, schedule: Q04DX002 (ip), vehicle: Klucel (hydroxypropylcellulose) (HPC)
[11] = dose: 400.0 mg/kg/injection, schedule: Q04DX002 (ip), vehicle: Klucel (hydroxypropylcellulose) (HPC)
[12] = dose: 400.0 mg/kg/injection, schedule: Q01DX001 (ip), vehicle: Klucel (hydroxypropylcellulose) (HPC)
[13] = dose: 100.0 mg/kg/injection, schedule: Q04DX002 (ip), vehicle: Klucel (hydroxypropylcellulose) (HPC)

Question: How did the survivor count (dose: 12.5 mg/kg/injection, schedule: Q01DX009 (ip), vehicle: saline) turn out when `CN1CCN(CCCN2c3ccccc3Sc3ccc(C(F)(F)F)cc32)CC1` was run?
Answer: The survivor count was 6 of 6.

Question: And the T/C (dose: 22.0 mg/kg/injection, schedule: Q01DX009 (ip), vehicle: saline with Tween-80)?
Answer: Its T/C is 143 % of control.

Question: What about the survivor count (dose: 25.0 mg/kg/injection, schedule: Q01DX009 (ip), vehicle: saline) of the same compound?
Answer: The survivor count was 2 of 6 and 6 of 6.

Question: And the survivor count (dose: 33.0 mg/kg/injection, schedule: Q01DX009 (ip), vehicle: saline with Tween-80)?
Answer: Its survivor count is 3 of 6.

Question: What about the T/C (dose: 37.0 mg/kg/injection, schedule: Q04DX003 (ip), vehicle: saline with Tween-80) of the same compound?
Answer: The T/C was 127 and 137 % of control.

Question: And the survivor count (dose: 37.5 mg/kg/injection, schedule: Q01DX009 (ip), vehicle: saline)?
Answer: Its survivor count is 3 of 6.

Question: What about the T/C (dose: 44.0 mg/kg/injection, schedule: Q04DX003 (ip), vehicle: saline with Tween-80) of the same compound?
Answer: The T/C was 136 % of control.

Question: What about the T/C [1] of the same compound?
Answer: Its T/C is 138 % of control [4 of 6 alive].

Question: What about the survivor count [1] of the same compound?
Answer: The survivor count was 1 of 6.

Question: And the T/C [2]?
Answer: The T/C was 130 % of control [4 of 6 alive].

Question: And the survivor count [2]?
Answer: The survivor count was 2 of 6, 4 of 6, 6 of 6.

Question: And the T/C (dose: 66.0 mg/kg/injection, schedule: Q04DX003 (ip), vehicle: saline with Tween-80)?
Answer: The T/C was 142 % of control.

Question: What about the survivor count (dose: 75.0 mg/kg/injection, schedule: Q01DX009 (ip), vehicle: saline with Tween-80) of the same compound?
Answer: The survivor count was 0 of 6.

Question: And the survivor count (dose: 75.0 mg/kg/injection, schedule: Q01DX009 (ip), vehicle: saline)?
Answer: Its survivor count is 1 of 6.

Question: And the survivor count (dose: 100.0 mg/kg/injection, schedule: Q01DX009 (ip), vehicle: saline with Tween-80)?
Answer: Its survivor count is 6 of 6.

Question: What about the survivor count [3] of the same compound?
Answer: The survivor count was 0 of 6, 1 of 6, 2 of 6.

Question: And the T/C [4]?
Answer: Its T/C is 129 and 141 % of control.

Question: And the survivor count (dose: 100.0 mg/kg/injection, schedule: Q04DX003 (ip), vehicle: saline)?
Answer: The survivor count was 3 of 4.

Question: What about the survivor count (dose: 150.0 mg/kg/injection, schedule: Q01DX009 (ip), vehicle: saline) of the same compound?
Answer: Its survivor count is 0 of 6 (2×).

Question: What about the survivor count [5] of the same compound?
Answer: The survivor count was 2 of 6 and 3 of 6.

Question: And the survivor count (dose: 150.0 mg/kg/injection, schedule: Q04DX003 (ip), vehicle: saline)?
Answer: The survivor count was 5 of 6 (2×).

Question: What about the survivor count (dose: 200.0 mg/kg/injection, schedule: Q01DX001 (ip), vehicle: saline) of the same compound?
Answer: The survivor count was 0 of 6.

Question: What about the survivor count [6] of the same compound?
Answer: Its survivor count is 3 of 6 and 4 of 6.

Question: What about the survivor count (dose: 200.0 mg/kg/injection, schedule: Q04DX003 (ip), vehicle: saline) of the same compound?
Answer: Its survivor count is 0 of 4, 1 of 6, 2 of 6.

Question: What about the survivor count (dose: 225.0 mg/kg/injection, schedule: Q01DX009 (ip), vehicle: saline) of the same compound?
Answer: Its survivor count is 0 of 6.

Question: What about the survivor count (dose: 230.0 mg/kg/injection, schedule: Q04DX003 (ip), vehicle: saline) of the same compound?
Answer: Its survivor count is 3 of 6.

Question: What about the survivor count (dose: 345.0 mg/kg/injection, schedule: Q04DX003 (ip), vehicle: saline) of the same compound?
Answer: Its survivor count is 0 of 6.

Question: What about the survivor count (dose: 400.0 mg/kg/injection, schedule: Q01DX001 (ip), vehicle: saline) of the same compound?
Answer: The survivor count was 0 of 6.

Question: And the survivor count [7]?
Answer: Its survivor count is 0 of 6 (2×).

Question: What about the survivor count (dose: 400.0 mg/kg/injection, schedule: Q04DX003 (ip), vehicle: saline) of the same compound?
Answer: Its survivor count is 0 of 6 (2×).

Question: And the survivor count (dose: 600.0 mg/kg/injection, schedule: Q04DX003 (ip), vehicle: saline)?
Answer: Its survivor count is 0 of 6.

Question: For `OCCC1CNCCN1.[Cl][Pd]([Cl])([Cl])[Cl]` (centres undefined), which survivor count (dose: 400.0 mg/kg/injection, schedule: Q01DX001 (ip), vehicle: DMSO) is on record?
Answer: Its survivor count is 1 of 3.

Question: For `CCCCCC[Si](Cl)(Cl)Cl`, which survivor count [8] is on record?
Answer: The survivor count was 3 of 6.

Question: Which results are given for `C=[CH][Pb]([CH]=C)([O]C(=O)C(C)C)[O]C(=O)C(C)C`?
Answer: survivor count [4]: 0 of 6; survivor count [6]: 0 of 6; survivor count [7]: 0 of 6

Question: How did the T/C (dose: 200.0 mg/kg/injection, schedule: Q04DX003 (ip), vehicle: Klucel (hydroxypropylcellulose) (HPC)) turn out when `O=C1OCC/C1=C/CCCC/C=C1\CCOC1=O` was run?
Answer: Its T/C is 137 % of control.

Question: What about the survivor count [9] of the same compound?
Answer: The survivor count was 3 of 6.

Question: What about the T/C (dose: 400.0 mg/kg/injection, schedule: Q04DX003 (ip), vehicle: Klucel (hydroxypropylcellulose) (HPC)) of the same compound?
Answer: Its T/C is 139 % of control.

Question: What about the survivor count (dose: 600.0 mg/kg/injection, schedule: Q04DX003 (ip), vehicle: Klucel (hydroxypropylcellulose) (HPC)) of the same compound?
Answer: Its survivor count is 2 of 6.

Question: For `c1cc[nH]c1`, which survivor count (dose: 150.0 mg/kg/injection, schedule: Q01DX001 (ip), vehicle: saline) is on record?
Answer: Its survivor count is 2 of 6.

Question: And the survivor count [8]?
Answer: Its survivor count is 0 of 6.

Question: `NC1(c2ccccc2)CC1` was tested. Which survivor count [10] did it give?
Answer: Its survivor count is 1 of 3.

Question: And the survivor count [11]?
Answer: Its survivor count is 0 of 3.

Question: For `CNc1ncnc(Cl)c1N`, which survivor count [12] is on record?
Answer: The survivor count was 0 of 6.

Question: With `CCCCCC/C=C\[N+](=O)[O-]` as the compound, how does the survivor count (dose: 100.0 mg/kg/injection, schedule: Q01DX001 (ip), vehicle: saline with Tween-80) read?
Answer: Its survivor count is 0 of 6.

Question: What about the survivor count (dose: 200.0 mg/kg/injection, schedule: Q01DX001 (ip), vehicle: saline with Tween-80) of the same compound?
Answer: Its survivor count is 0 of 6.

Question: Which results are given for `ClC1c2ccccc2-c2nsnc2C1Cl` (centres undefined)?
Answer: survivor count [13]: 3 of 3; survivor count [11]: 3 of 3

Question: How did the survivor count (dose: 200.0 mg/kg/injection, schedule: Q01DX001 (ip), vehicle: gum acacia) turn out when `CCOC(=O)c1cnc(SC)nc1Nc1cccc(C(F)(F)F)c1` was run?
Answer: The survivor count was 6 of 6.

Question: What does the source list for `O=C(Nc1ccc(C2=NCCN2)c(Cl)c1)c1cccc(C(=O)Nc2ccc(C3=NCCN3)c(Cl)c2)c1`?
Answer: survivor count (dose: 60.0 mg/kg/injection, schedule: Q01DX Z (ip), vehicle: carboxymethylcellulose (CMC)): 2 of 6; survivor count (dose: 120.0 mg/kg/injection, schedule: Q01DX Z (ip), vehicle: carboxymethylcellulose (CMC)): 2 of 6

Question: For `COc1cccc(NC(=S)NN)c1`, which survivor count (dose: 50.0 mg/kg/injection, schedule: Q04DX002 (ip), vehicle: Klucel (hydroxypropylcellulose) (HPC)) is on record?
Answer: The survivor count was 3 of 3.

Question: And the survivor count [13]?
Answer: The survivor count was 0 of 3.

Question: What about the survivor count [10] of the same compound?
Answer: The survivor count was 0 of 3.

Question: And the survivor count [11]?
Answer: The survivor count was 0 of 3.

Question: Which results are given for `CCN(CC)CCCC(C)Nc1cc(OC)cc2cccnc12` (centres undefined)?
Answer: survivor count (dose: 80.0 mg/kg/injection, schedule: Q01DX001 (ip), vehicle: Klucel (hydroxypropylcellulose) (HPC)): 1 of 6; survivor count (dose: 100.0 mg/kg/injection, schedule: Q01DX001 (ip), vehicle: Klucel (hydroxypropylcellulose) (HPC)): 0 of 6; survivor count (dose: 200.0 mg/kg/injection, schedule: Q01DX001 (ip), vehicle: Klucel (hydroxypropylcellulose) (HPC)): 0 of 6; survivor count [12]: 0 of 6

Question: Which results are given for `CC1=C(C)C2(C)C(C)(O)C(C)(O)C12C` (centres undefined)?
Answer: survivor count [5]: 6 of 6; survivor count (dose: 300.0 mg/kg/injection, schedule: Q04DX003 (ip), vehicle: saline with Tween-80): 6 of 6

Question: Which survivor count (dose: 12.5 mg/kg/injection, schedule: Q01DX009 (ip), vehicle: Klucel (hydroxypropylcellulose) (HPC)) does the source give for `Clc1nc(Br)[nH]c1Cl` here?
Answer: The survivor count was 0 of 3.

Question: What about the survivor count (dose: 25.0 mg/kg/injection, schedule: Q01DX009 (ip), vehicle: Klucel (hydroxypropylcellulose) (HPC)) of the same compound?
Answer: The survivor count was 0 of 3.

Question: And the survivor count (dose: 50.0 mg/kg/injection, schedule: Q01DX009 (ip), vehicle: Klucel (hydroxypropylcellulose) (HPC))?
Answer: Its survivor count is 0 of 3.

Question: What about the survivor count (dose: 100.0 mg/kg/injection, schedule: Q01DX009 (ip), vehicle: Klucel (hydroxypropylcellulose) (HPC)) of the same compound?
Answer: Its survivor count is 0 of 3 and 0 of 6.

Question: And the survivor count (dose: 200.0 mg/kg/injection, schedule: Q01DX009 (ip), vehicle: Klucel (hydroxypropylcellulose) (HPC))?
Answer: The survivor count was 0 of 6.

Question: What about the survivor count [9] of the same compound?
Answer: Its survivor count is 0 of 6.

Question: What does the source list for `C=CC(CO)N1CC1` (centres undefined)?
Answer: survivor count (dose: 100.0 mg/kg/injection, schedule: Q01DX001 (ip), vehicle: carboxymethylcellulose (CMC)): 1 of 6 and 2 of 6; survivor count (dose: 200.0 mg/kg/injection, schedule: Q01DX001 (ip), vehicle: carboxymethylcellulose (CMC)): 0 of 6; survivor count (dose: 400.0 mg/kg/injection, schedule: Q01DX001 (ip), vehicle: carboxymethylcellulose (CMC)): 0 of 6

Question: What does the source list for `CCN(CC)CCCNc1cc(Cl)c(Cl)cc1[N+](=O)[O-]`?
Answer: survivor count [3]: 6 of 6; survivor count (dose: 200.0 mg/kg/injection, schedule: Q01DX009 (ip), vehicle: saline): 6 of 6; survivor count (dose: 400.0 mg/kg/injection, schedule: Q01DX009 (ip), vehicle: saline): 3 of 6

Source: PubChem BioAssay AID248 (DTP/NCI, 2004)
